In PubChem BioAssay AID2685 (National Center for Advancing Translational Sciences (NCATS), 2010):
Out of some 320,000 compounds screened, about 2,100 (0.66%) were called active. This list was built around the results that the source calls inconclusive (neither active nor inactive); the mix of calls is not that of the screen. Calls come from the whole dose curve; as a rule, active = well fitted inhibition curve with a large enough effect in the signal ratio, with a control signal flat (not every such curve was filed as active); inconclusive = small, poorly fitted or top-dose-only effect, or effect the other way, or a change in a side signal; inactive = flat fitted curve, though single readings scatter; the % refers to the signal ratio. Potencies of inconclusive entries are doubtful fits and often do not repeat.

Assay: qHTS Assay for Lipid Storage Modulators in Drosophila S3 Cells
Conditions: BODIPY lipid droplet fluorescence, 18-24 h, cells fed with added oleic acid; lipid storage change, negative = inhibition: at 46.1 µM (top of the series) unless noted
Procedure, shortened: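 Drosophila S3 cells loaded with oleic acid (400 uM, as added) and compounds at several concentrations; lipid droplets imaged by 488-nm laser-scanning cytometry, 500–530 nm intensity and object ratio to cell channel. Percent activity normalized to 20 uM Triacsin C.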
% is set by controls: 0 for no effect and ±100 for the full control effect; potency is the fitted concentration of half-maximal effect.

Structure (SMILES) | Potency | lipid storage change, negative = inhibition
COc1ccc(-c2nc(C#N)c(N3CCOCC3)o2)cc1OC | inconclusive: 6.51 µM [activator, single point] | 
O=C(Nc1cc(C(=O)Nc2ccccc2C(=O)O)cc(C(=O)Nc2ccccc2C(=O)O)c1)c1ccccc1 | inconclusive: 29.1 µM [activator, single point] | 
C/C(=N\O)c1sc(-c2ccccc2)nc1C |  | inconclusive: 6.84%
CCNC(=O)c1c(NC(=O)c2cc(-c3cc(C)ccc3O)n[nH]2)sc2c1CCCC2 | inconclusive: 0.326 µM [activator, full curve, poor fit] | 
Cc1ccc(CNC(=O)c2cccc(S(C)(=O)=O)c2)cc1 |  | inconclusive: 83.8%
CN(C)S(=O)(=O)c1ccc(C(=O)Nc2ccc(S(=O)(=O)NC3=NCCCCC3)cc2)cc1 |  | inactive
O=C(CN1C(=O)/C(=C/c2ccc(F)cc2)SC1=S)NC1CCS(=O)(=O)C1 (stereo unspecified) |  | inactive
Cc1c(CC(=O)Nc2ccc(Cl)cc2)sc2ccc(Cl)cc12 | inconclusive: 25.9 µM [falling, single point] | 
Cc1ccc(CN2CCN(Cc3nc4ccccc4nc3C)CC2CCO)cc1 (stereo unspecified) |  | inconclusive: 10.9%
C=CCN1C(=O)c2ccc(C(=O)N3CCN(S(=O)(=O)c4cccc(F)c4)CC3)cc2C1=O |  | inconclusive
Cc1ccc(C(C(=O)NC2CCCCC2)N(Cc2cccnc2)C(=O)C2COc3ccccc3O2)o1 (stereo unspecified) | inconclusive: 0.731 µM [activator, full curve] | 
Cc1[nH]nc2c1C(c1cccc(O)c1)C1=C(CC(C)(C)CC1=O)N2 (stereo unspecified) |  | inconclusive: 9.65%
CN(C(=O)Cn1nc(Cl)ccc1=O)C1CCCN(Cc2ccccc2F)C1 (stereo unspecified) |  | inconclusive: -12.6%
Cc1ccc(NC(=O)c2cnn(-c3ccccc3)c2C)cc1 |  | inconclusive: 12.9%
CCOc1ccc2c3c(c(=O)oc2c1OCC)CCCC3 |  | inconclusive: -27.7%
Cc1cc(C(=O)NNC(=O)c2ccccc2O)c(C)o1 |  | inconclusive: -49.3%
COc1cccc2sc(=NC(=O)CCS(=O)(=O)c3ccc(C)cc3)n(C)c12 | inconclusive: 0.731 µM [activator, partial curve, poor fit] | 
C#CCOCCOCCOCCNc1nc(N2CCN(C(=O)Cn3cc(CCCN=C(N)N)nn3)CC2)nc(N2CCN(C(=O)[C@H](CCCCN)n3cc(CC(C)O)nn3)CC2)n1 (stereo partly specified) |  | inconclusive: 11.7%
CCN(CC)CCn1c(SCC(=O)Nc2ccc3c(c2)CCC3)nc2ccccc2c1=O |  | inconclusive: -10.8%
O=C(/C=C/c1cccs1)NC(=S)Nc1ccccc1 |  | inconclusive: -53.7%
COc1ccnc(NCc2ccc(Cl)cc2)c1C#N | inconclusive: 8.2 µM [activator, partial curve, poor fit] | 
CC1SC2(NC1=O)C1CC3CC(C1)CC2C3 (stereo unspecified) |  | inconclusive: 23.2%
O=C(NC1CCCCC1)c1ccc2[nH]c(=O)c(=O)[nH]c2c1 | inconclusive: 29.1 µM [activator, single point] | 
O=C1c2cccc3cccc(c23)C(=O)N1c1cccnc1 |  | inactive
N#CCOC(=O)c1cc(S(=O)(=O)N2CCCCC2)ccc1N1CCOCC1 | inconclusive: 29.1 µM [activator, single point] | 
O=c1[nH]c(/C=C/c2ccc(Br)cc2)nc2ccccc12 |  | inconclusive: -46.3%

Of the compounds above, 3 have a cyano group:
Structure (SMILES) | Potency | lipid storage change, negative = inhibition
COc1ccc(-c2nc(C#N)c(N3CCOCC3)o2)cc1OC | inconclusive: 6.51 µM [activator, single point] | 
COc1ccnc(NCc2ccc(Cl)cc2)c1C#N | inconclusive: 8.2 µM [activator, partial curve, poor fit] | 
N#CCOC(=O)c1cc(S(=O)(=O)N2CCCCC2)ccc1N1CCOCC1 | inconclusive: 29.1 µM [activator, single point] | 

(cont.)

Structure (SMILES) | Potency | lipid storage change, negative = inhibition
CC1CCCCC1NC(=O)CSc1nncn1N (stereo unspecified) |  | inconclusive: -28.1%
COc1ccc(Cl)cc1NC(=O)c1cc(S(=O)(=O)N2CCCC2)cn1C |  | inconclusive: -5.39%
N/C(=N\OC(=O)CCCOc1ccccc1)c1cccc([N+](=O)[O-])c1 |  | inconclusive: 4.32%
Cc1ccc(C(=O)NC2CCN(C(=O)NCc3ccccc3)CC2)cc1 | inconclusive: 4.11 µM [activator, partial curve, poor fit] | 
Cc1ccc(S(=O)(=O)N2CCC(C(=O)NNC(=O)C3CC3)CC2)cc1Cl |  | inconclusive: -24.3%
CCOC(=O)c1[nH]c2ccc(Cl)cc2c1NC(=O)c1nonc1C |  | inactive
COCC(=O)N=Nc1c(O)[nH]c2ccccc12 | inconclusive: 3.26 µM [rising, full curve] | 
O=c1c2ccccc2nc(/C=C/c2c[nH]c3ccccc23)n1-c1ccc([N+](=O)[O-])cc1 | inconclusive: 0.326 µM [activator, full curve] | 
CCOC(=O)CN/C=C(\C#N)c1ccc(F)cc1 | inconclusive: 0.231 µM [falling, full curve] | 
O=C(OCC(=O)c1ccc[nH]1)c1ccc(Br)cc1 |  | inconclusive: -24.9%
CCCCCOc1ccc(Br)cc1CSC(=N)N |  | inconclusive: -24.1%
CCC(=O)c1ccc(OCC(=O)NC2CCCC2)cc1 | inconclusive: 2.59 µM [activator, partial curve] | 
COc1cc(SC)ccc1C(=O)OC1CCOC1=O (stereo unspecified) |  | inconclusive: -11.3%
NS(=O)(=O)c1ccc(CNC(=O)c2ccc(Br)o2)cc1 | inconclusive: 9.2 µM [falling, partial curve, poor fit] | 
CC(C)(C)N(CC(=O)NC1CCCCC1)C(=O)CS(=O)CC(=O)Nc1ccc(F)cc1 (stereo unspecified) | inconclusive: 16.4 µM [activator, partial curve] | 
C=CCSc1nsc(NC(=O)Nc2ccc(F)cc2)n1 | active: 5.17 µM | 
CC(C)(C)C(=O)NC(=S)Nc1ccc(Cc2ccncc2)cc1 |  | inconclusive: -119%
CCOC(=O)C(C)Sc1nc(-c2ccco2)cc(C(F)(F)F)c1C#N (stereo unspecified) |  | inconclusive: 68.1%
CCN(C(=O)CSc1n[nH]c(-c2cc(Cl)ccc2OC)n1)C1CCS(=O)(=O)C1 (stereo unspecified) |  | inconclusive: 10.5%
C#CCOC(=O)C(NC(=O)c1ccccc1)=C(C)C | inconclusive: 5.8 µM [rising, partial curve] | 
COc1ccccc1OCCCC(=O)Nc1nccs1 | inconclusive: 0.082 µM [falling, full curve, poor fit] | 
O=C1COc2ccc(C(=O)COC(=O)Cc3c(F)cccc3Cl)cc2N1 |  | inconclusive
CCCN(CC(=O)Nc1ccccc1C)C(=O)c1cc(=O)[nH]c2ccccc12 |  | inconclusive: 5.39%
Cn1cc(CCCC(=O)NCc2ccc(F)cc2)c2ccccc21 | inconclusive: 3.26 µM [falling, full curve, poor fit] | 
CC(NCCC(c1ccccc1)c1ccccc1)c1ccccc1 (stereo unspecified) | inconclusive: 20.6 µM [cytotoxic, partial curve] | 
CCc1ccc2[nH]c3nc(SCc4nnc(-c5ccccc5)o4)nnc3c2c1 |  | inconclusive: -29%

Structure (SMILES) | Potency | lipid storage change, negative = inhibition
Nc1ncnc(Nc2ccc(F)cc2)n1 |  | inconclusive: -67.9%
Cc1cc([N+](=O)[O-])nn1CCCC(=O)Nc1c(C)n(C)n(-c2ccccc2)c1=O | inconclusive: 1.64 µM [falling, partial curve] | 
COc1ccc(NC(=O)C2CC(=O)N(c3ccccc3C)C2)c(OC)c1 (stereo unspecified) | inconclusive: 6.51 µM [falling, partial curve, poor fit] | 
Cc1cc(C)c(S(=O)(=O)N(CC(=O)N2CCCC2)C2CCCCC2)c(C)c1 |  | inconclusive: 138%
CNC(=O)c1nc(C)n(-c2ccc(Cl)cc2Cl)n1 |  | inconclusive: 31.1%
O=C(CCn1cccc1)NC1CCCc2ccccc21 (stereo unspecified) |  | inconclusive: 0.931%
CC(C)(C)c1ccc(C(=O)NCC(=O)NCC(C)(C)N2CCOCC2)cc1 |  | inconclusive: -30.4% [at 0.0737 µM]
CC(C)CC(=O)Nc1ccccc1N1CCN(C(=O)c2ccccc2)CC1 | inconclusive: 1.64 µM [activator, partial curve] | 
CCn1c(=O)cc(OCC(=O)NC2CC2)c2ccccc21 |  | inconclusive: -37.2%
O=C(CNC(=O)c1cccnc1)N=Nc1c(O)[nH]c2c(Br)cc(Br)cc12 | inconclusive: 4.11 µM [falling, partial curve, poor fit] | 
COc1ccc(OC)c(N2C(=O)C(Cl)=C(N3CCCCC3)C2=O)c1 |  | inconclusive: 5.35%
COc1cc(CNn2c(C)n[nH]c2=S)cc(Cl)c1OCc1ccc(F)cc1 |  | inconclusive: 225%
CN(C(=O)c1ccc(S(=O)(=O)N2CCCC2)cc1)C1CCCCC1 |  | inactive
CCN1CCN(Cc2ccc(NC(=O)c3cc(NC(=O)c4cc5cccc(OC)c5o4)cc(OC)c3)cc2C(F)(F)F)CC1 |  | inconclusive: -19%
C/C(=N\NC(=O)C(=O)Nc1c(C)n(C)n(-c2ccccc2)c1=O)c1ccncc1 |  | inconclusive: -24.4%
Cc1ccc(NS(=O)(=O)c2cccc(C(=O)N3CCN(c4ncccn4)CC3)c2)cc1 |  | inconclusive: 11.9%
CC1=NNC(=O)C1CC(=O)N/N=C(\C)c1ccco1 (stereo unspecified) |  | inconclusive: 51%
CC(=O)Nc1ccc(S(=O)(=O)NNC(=O)c2cccc(Cl)c2)cc1 |  | inconclusive: 17.6%
CC(C)n1c(SCC(=O)N2CCN(C)CC2)nc2c1c(=O)n(C)c(=O)n2C |  | inactive
COc1ccc(CCNC(=O)c2ccc3nc(-c4ccco4)c(-c4ccco4)nc3c2)cc1OC |  | inconclusive: 0.134%
NS(=O)(=O)c1ccc(CNC(=O)c2ccccc2SCC(=O)N2CCCC2)cc1 |  | inconclusive: 22.3%
O=C(CCCCCNC(=S)Nc1ccc(Cl)cc1)C[N+](=O)[O-] | inconclusive: 0.0651 µM [falling, full curve, poor fit] | 
CCn1c(SC/C=C/c2ccccc2)nnc1-c1cnccn1 | inconclusive: 6.51 µM [activator, single point] | 
Cc1noc(C)c1COC(=O)c1ccc(F)c(S(=O)(=O)N2CCOCC2)c1 | inconclusive: 3.66 µM [activator, single point] | 
